Data: PubChem BioAssay AID493014 (National Center for Advancing Translational Sciences (NCATS), 2011)
The list shows a part of the results. Shown are side measurements of this screen, not its main read-out; they come without a call. The list favours compounds with an active or inconclusive main result. The note in brackets gives the kind of curve behind each potency; many fits are weak.

Experiment: qHTS Assay to Find Inhibitors of Chronic Active B-Cell Receptor Signaling
Settings: ABC-DLBCL IkBa-CBG/CBR reporter, luminescence ratio (green luciferase fused to IkBa over red control in TMD8 lymphoma cells), 4 h
In short: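 Concentration-response series (up to 46 uM) were applied to TMD8 dual-reporter cells for 4 h at 37C with doxycycline. Green/red ratio, after filter-overlap correction, defined %Activity; red signal alone was normalised to basal cells and zero luminescence.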

[1] = measured here: CBR red luminescence, cell number
[2] = measured here: IkBa-CBG green luminescence

SMILES	AC50 [1]	AC50 [2]
Cn1cc(Cl)c(C(=O)Nc2nc3ccc(Cl)cc3s2)n1	2.24 µM [falling, full curve]	
Cc1ccccc1NC(=O)C(=O)NC(C)CCc1ccccc1 (stereo unspecified)	18.4 µM [falling, partial curve]	
COc1ccc(S(=O)(=O)Nc2ccc(OCC(=O)O)cc2)c2ccccc12	12.6 µM [rising, single point]	
COc1ccc(C2c3sc(=O)[nH]c3SC3C4CCC(C4)C23)cc1 (stereo unspecified)	29.1 µM [rising, single point]	
O=C1c2ccccc2NC(c2ccc(-c3cccc(F)c3)o2)N1O (stereo unspecified)	9.2 µM [falling, partial curve]	
CN(C)c1ncc(S(=O)(=O)c2ccccc2)c(N)n1	0.891 µM [falling, full curve]	
Cc1cc(C(=O)NNCc2ccccc2)no1	18.4 µM [rising, single point]	
CCn1c(=O)c(NC(=O)c2ccccc2)c2n(c1=S)CCCCC2	4.11 µM [falling, partial curve, poor fit]	
Cc1cccc(Nc2cnn(C34CC5CC(CC(CC(=O)O)(C5)C3)C4)c(=O)c2Cl)c1	0.461 µM [falling, partial curve, poor fit]	
COc1ccc(C(=O)CSc2nccn2C)c(OC)c1	7.94 µM [falling, partial curve]	
CC(=O)Nc1ccccc1C(=O)N1CC2(C)CC1CC(C)(C)C2 (stereo unspecified)	2.31 µM [rising, partial curve]	
C[C@@H]1CN([C@@H](C)CO)C(=O)c2cccc(NC(=O)Nc3ccccc3)c2O[C@H]1CN(C)C(=O)Nc1cccc2ccccc12	29.1 µM [falling, single point]	
COc1cccc(C(=O)NC(=S)Nc2ccc3oc(=O)ccc3c2)c1	20.6 µM [falling, single point]	
Cc1ccc(Nc2nnc(SCC(=O)NC(Cc3c[nH]c4ccccc34)C(=O)O)s2)cc1 (stereo unspecified)	11.2 µM [rising, partial curve]	
CCOC(=O)Cc1csc(NC(=O)COc2ccc(C)c(C)c2)n1	20 µM [falling, single point]	
CCCN1CCC(N2CCN(c3cccc(C(F)(F)F)c3)CC2)CC1	29.1 µM [falling, single point]	
Cc1[nH]n(-c2ccccc2)c(=O)c1/C=N/N1C(=O)c2ccc3c4c(ccc(c24)C1=O)CC3	20.6 µM [rising, partial curve]	
O=C(/C=C/c1nc2ccccc2s1)N1CCCCCC1	11.2 µM [falling, single point]	
CCC(C)NC(=O)CCNS(=O)(=O)c1ccc(Br)cc1 (stereo unspecified)	6.51 µM [rising, single point]	
O=C(O)CSc1nnc(-c2cc3ccccc3o2)n1-c1ccccc1	5.17 µM [falling, single point]	
O=C(NCc1cc([N+](=O)[O-])ccc1O)c1cc(-c2ccncc2)nc2ccccc12	0.501 µM [falling, full curve, poor fit]	
Cc1ccc(N(Cc2cc3ccccc3[nH]c2=O)C(=O)c2cccs2)cc1	18.4 µM [rising, single point]	

SMILES	AC50 [1]	AC50 [2]
O=C(Nc1ccc(N2CCOCC2)cc1)c1ccc(Cl)cc1N1CCCC1=O	4.11 µM [falling, partial curve, poor fit]	
COc1ccc2oc(=O)c(C(=O)NCc3ccccc3)cc2c1	11.2 µM [rising, partial curve, poor fit]	
O=C(c1ccccc1)c1coc2ccc(O)c(Cl)c12	28.2 µM [falling, single point]	
Cc1ccccc1Nc1nnc(SCc2cc([N+](=O)[O-])cc3c2OCOC3)s1	2.91 µM [falling, full curve, poor fit]	
CC(NC(=O)NNC(N)=S)(C(F)(F)F)C(F)(F)F	22.4 µM [falling, single point]	35.5 µM [falling, single point]
CN(CCC#N)S(=O)(=O)c1ccc2[nH]cc(C(=O)NCCc3ccccc3)c(=O)c2c1	20.6 µM [falling, partial curve, poor fit]	
Cc1ccc(/C=N/N=C/c2ccc(C)s2)s1	13 µM [falling, partial curve, poor fit]	
CCOC(=O)C1=C(O)/C(=C/c2cc(C)n(-c3ccccc3)c2C)N=C1C	3.16 µM [rising, partial curve, poor fit]	
O=S(=O)(CC(CN1CCCCC1)N1CCCCC1)c1ccccc1 (stereo unspecified)	7.94 µM [falling, partial curve, poor fit]	
Cc1ccc2nc(-c3ccc(O)c(O)c3)cn2c1	11.2 µM [falling, single point]	
COc1cccc(C(=O)NCCSc2ccc(C)cc2)c1	6.51 µM [falling, partial curve, poor fit]	
CC1CCCN(S(=O)(=O)c2ccc(N(C(=O)c3cnccn3)C(C(=O)NC3CCCCC3)c3cccs3)cc2)C1 (stereo unspecified)	0.58 µM [falling, full curve, poor fit]	
COc1ccc(NC(=O)N2CCCC(c3nc(-c4ccc(OC)cc4)no3)C2)cc1 (stereo unspecified)	3.98 µM [falling, partial curve, poor fit]	
CC(=O)c1ccc(NS(=O)(=O)c2ccc(N)cc2)cc1		15.8 µM [falling, single point]
CCc1cc(C(=O)Nc2nc(-c3ccccn3)cs2)sc1C	7.31 µM [rising, single point]	
O=C(Oc1ccc2c(-c3ccccc3)cc(=O)oc2c1)c1cccs1	1.03 µM [rising, full curve, poor fit]	
CC1(C)CC(=O)C=C(c2cccc3c2Oc2ccccc2S3)C1	6.51 µM [rising, single point]	
CC1CCN(c2cc(N)c(Cl)cc2[N+](=O)[O-])CC1	31.6 µM [rising, single point]	
COCCNC(=O)c1cnn2c(C(F)(F)F)cc(-c3ccc4c(c3)OCO4)nc12	9.2 µM [rising, partial curve, poor fit]	
O=[N+]([O-])c1cccc(C(=NCc2ccccc2)NO)c1	5.62 µM [rising, full curve, poor fit]	
COc1ccc2ncc(S(=O)(=O)c3ccccc3)c(N3CCC4(CC3)OCCO4)c2c1	25.9 µM [falling, partial curve, poor fit]	
Cc1ccc(C(=O)Nc2ccc(S(=O)(=O)N3CCCC3)cc2)s1	31.6 µM [falling, partial curve, poor fit]	

SMILES	AC50 [1]	AC50 [2]
CC(=O)c1cc(C#N)c(NCc2cc(-c3ccccc3)no2)nc1C	35.5 µM [rising, single point]	
CCN1C(=O)[C@H]2[C@@H](c3ccc(C)cc3)N3C(=O)N(c4ccc(C(F)(F)F)cc4)C(=O)[C@@]3(Cc3ccccc3)[C@H]2C1=O	2.24 µM [rising, partial curve]	
CC1=C/C(=N\N=C2\NC(=O)C(CC(=O)Nc3ccccc3F)S2)CC(C)(C)C1 (stereo unspecified)	17.8 µM [falling, single point]	35.5 µM [falling, single point]
Cc1cccc(-n2nnnc2SCc2csc(-c3ccccc3)n2)c1	8.2 µM [rising, partial curve, poor fit]	
COc1ccc(C(=O)Nc2ncc3c(n2)CC(C)CC3=O)cc1 (stereo unspecified)	11.2 µM [falling, partial curve, poor fit]	
CCOC(=O)c1c(NC(=O)CSc2ccccc2C(=O)O)sc(C)c1C	35.5 µM [falling, single point]	
CC[C@H](C)[C@@H](NC(=O)O[C@@H]1C(=O)c2cc(Br)ccc2O[C@H]1c1cccc(OC)c1)C(=O)OC	2.59 µM [rising, full curve]	
CS(=O)(=O)N1CCN(c2nc(-c3ccc(F)cc3)cs2)CC1	22.4 µM [rising, single point]	
Cc1ccc2nc(NCc3ccccc3)c(C=NCc3ccccc3)c(=O)n2c1	2.06 µM [rising, full curve, poor fit]	
Oc1ccc(/C=C/c2ccnc3ccccc23)cc1	29.1 µM [falling, single point]	
S=c1[nH]nc(-c2ccccn2)n1/N=C/c1ccco1	22.4 µM [falling, single point]	
COc1ccc(S(=O)(=O)N(Cc2cc3ccc(OC)cc3[nH]c2=O)CC2COCCO2)cc1 (stereo unspecified)	14.1 µM [rising, partial curve]	
O=C(c1cc(COc2ccc(F)cc2Cl)on1)N1CCc2sccc2C1	11.2 µM [rising, partial curve, poor fit]	
CCCc1ccc(-c2csc(NC(=O)Cc3cccs3)n2)cc1	3.66 µM [rising, partial curve]	
C=CC[n+]1c(C)csc1Nc1cccc(Br)c1	20 µM [rising, single point]	
CC(C)(C)c1ccc(C(=O)O/N=C(\N)c2ccccc2)cc1	3.55 µM [rising, full curve]	
COc1ccc(/C=C2\SC(=S)N(CCC(=O)NCCCN3CCOCC3)C2=O)cc1	7.08 µM [falling, partial curve]	
COc1ccccc1C(=O)COC(=O)c1ccc(N(C)C)cc1	14.1 µM [falling, partial curve]	
Cc1cccc(Nc2c(F)c(F)c(F)c(F)c2C(=O)O)c1	17.8 µM [rising, single point]	
COc1ccc(NS(=O)(=O)c2cc(C)ccc2OC)cc1OC	14.6 µM [rising, partial curve, poor fit]	

Look-ups from the list:
AC50 [1] with C=CC[n+]1c(C)csc1Nc1cccc(Br)c1 is entered as 20 µM [rising, single point]
AC50 [1] with CC1CCN(c2cc(N)c(Cl)cc2[N+](=O)[O-])CC1 is entered as 31.6 µM [rising, single point]
AC50 [1] with COc1ccc(C2c3sc(=O)[nH]c3SC3C4CCC(C4)C23)cc1 (stereo unspecified) is entered as 29.1 µM [rising, single point]
AC50 [1] with COCCNC(=O)c1cnn2c(C(F)(F)F)cc(-c3ccc4c(c3)OCO4)nc12 is entered as 9.2 µM [rising, partial curve, poor fit]
AC50 [1] with Cc1cccc(-n2nnnc2SCc2csc(-c3ccccc3)n2)c1 is entered as 8.2 µM [rising, partial curve, poor fit]
